6 molecules from article doi:10.1101/2025.10.26.684708 can be followed below.

By UniProt entry, the sequences of proteins in these tests, tags left out.
UniProt Q9CUN6: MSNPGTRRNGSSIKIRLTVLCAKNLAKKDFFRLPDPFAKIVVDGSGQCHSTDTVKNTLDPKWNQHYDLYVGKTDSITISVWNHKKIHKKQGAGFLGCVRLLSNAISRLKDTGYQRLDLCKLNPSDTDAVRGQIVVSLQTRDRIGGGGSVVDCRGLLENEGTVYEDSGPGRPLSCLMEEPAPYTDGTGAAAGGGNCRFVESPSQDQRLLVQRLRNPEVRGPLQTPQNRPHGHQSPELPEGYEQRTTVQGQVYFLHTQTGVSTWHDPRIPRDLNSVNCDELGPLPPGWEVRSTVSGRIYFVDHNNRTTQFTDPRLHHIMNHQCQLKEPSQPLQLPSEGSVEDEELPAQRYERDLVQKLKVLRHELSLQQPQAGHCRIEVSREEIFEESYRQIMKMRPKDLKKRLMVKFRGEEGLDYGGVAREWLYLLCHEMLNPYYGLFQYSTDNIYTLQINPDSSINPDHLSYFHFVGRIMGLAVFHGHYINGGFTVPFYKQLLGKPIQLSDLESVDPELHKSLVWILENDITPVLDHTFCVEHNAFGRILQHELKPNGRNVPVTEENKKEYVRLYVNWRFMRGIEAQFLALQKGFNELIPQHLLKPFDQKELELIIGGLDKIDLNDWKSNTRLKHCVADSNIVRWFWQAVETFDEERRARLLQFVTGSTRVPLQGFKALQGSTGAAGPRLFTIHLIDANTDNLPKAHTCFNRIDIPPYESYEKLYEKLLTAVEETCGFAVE
UniProt O75592: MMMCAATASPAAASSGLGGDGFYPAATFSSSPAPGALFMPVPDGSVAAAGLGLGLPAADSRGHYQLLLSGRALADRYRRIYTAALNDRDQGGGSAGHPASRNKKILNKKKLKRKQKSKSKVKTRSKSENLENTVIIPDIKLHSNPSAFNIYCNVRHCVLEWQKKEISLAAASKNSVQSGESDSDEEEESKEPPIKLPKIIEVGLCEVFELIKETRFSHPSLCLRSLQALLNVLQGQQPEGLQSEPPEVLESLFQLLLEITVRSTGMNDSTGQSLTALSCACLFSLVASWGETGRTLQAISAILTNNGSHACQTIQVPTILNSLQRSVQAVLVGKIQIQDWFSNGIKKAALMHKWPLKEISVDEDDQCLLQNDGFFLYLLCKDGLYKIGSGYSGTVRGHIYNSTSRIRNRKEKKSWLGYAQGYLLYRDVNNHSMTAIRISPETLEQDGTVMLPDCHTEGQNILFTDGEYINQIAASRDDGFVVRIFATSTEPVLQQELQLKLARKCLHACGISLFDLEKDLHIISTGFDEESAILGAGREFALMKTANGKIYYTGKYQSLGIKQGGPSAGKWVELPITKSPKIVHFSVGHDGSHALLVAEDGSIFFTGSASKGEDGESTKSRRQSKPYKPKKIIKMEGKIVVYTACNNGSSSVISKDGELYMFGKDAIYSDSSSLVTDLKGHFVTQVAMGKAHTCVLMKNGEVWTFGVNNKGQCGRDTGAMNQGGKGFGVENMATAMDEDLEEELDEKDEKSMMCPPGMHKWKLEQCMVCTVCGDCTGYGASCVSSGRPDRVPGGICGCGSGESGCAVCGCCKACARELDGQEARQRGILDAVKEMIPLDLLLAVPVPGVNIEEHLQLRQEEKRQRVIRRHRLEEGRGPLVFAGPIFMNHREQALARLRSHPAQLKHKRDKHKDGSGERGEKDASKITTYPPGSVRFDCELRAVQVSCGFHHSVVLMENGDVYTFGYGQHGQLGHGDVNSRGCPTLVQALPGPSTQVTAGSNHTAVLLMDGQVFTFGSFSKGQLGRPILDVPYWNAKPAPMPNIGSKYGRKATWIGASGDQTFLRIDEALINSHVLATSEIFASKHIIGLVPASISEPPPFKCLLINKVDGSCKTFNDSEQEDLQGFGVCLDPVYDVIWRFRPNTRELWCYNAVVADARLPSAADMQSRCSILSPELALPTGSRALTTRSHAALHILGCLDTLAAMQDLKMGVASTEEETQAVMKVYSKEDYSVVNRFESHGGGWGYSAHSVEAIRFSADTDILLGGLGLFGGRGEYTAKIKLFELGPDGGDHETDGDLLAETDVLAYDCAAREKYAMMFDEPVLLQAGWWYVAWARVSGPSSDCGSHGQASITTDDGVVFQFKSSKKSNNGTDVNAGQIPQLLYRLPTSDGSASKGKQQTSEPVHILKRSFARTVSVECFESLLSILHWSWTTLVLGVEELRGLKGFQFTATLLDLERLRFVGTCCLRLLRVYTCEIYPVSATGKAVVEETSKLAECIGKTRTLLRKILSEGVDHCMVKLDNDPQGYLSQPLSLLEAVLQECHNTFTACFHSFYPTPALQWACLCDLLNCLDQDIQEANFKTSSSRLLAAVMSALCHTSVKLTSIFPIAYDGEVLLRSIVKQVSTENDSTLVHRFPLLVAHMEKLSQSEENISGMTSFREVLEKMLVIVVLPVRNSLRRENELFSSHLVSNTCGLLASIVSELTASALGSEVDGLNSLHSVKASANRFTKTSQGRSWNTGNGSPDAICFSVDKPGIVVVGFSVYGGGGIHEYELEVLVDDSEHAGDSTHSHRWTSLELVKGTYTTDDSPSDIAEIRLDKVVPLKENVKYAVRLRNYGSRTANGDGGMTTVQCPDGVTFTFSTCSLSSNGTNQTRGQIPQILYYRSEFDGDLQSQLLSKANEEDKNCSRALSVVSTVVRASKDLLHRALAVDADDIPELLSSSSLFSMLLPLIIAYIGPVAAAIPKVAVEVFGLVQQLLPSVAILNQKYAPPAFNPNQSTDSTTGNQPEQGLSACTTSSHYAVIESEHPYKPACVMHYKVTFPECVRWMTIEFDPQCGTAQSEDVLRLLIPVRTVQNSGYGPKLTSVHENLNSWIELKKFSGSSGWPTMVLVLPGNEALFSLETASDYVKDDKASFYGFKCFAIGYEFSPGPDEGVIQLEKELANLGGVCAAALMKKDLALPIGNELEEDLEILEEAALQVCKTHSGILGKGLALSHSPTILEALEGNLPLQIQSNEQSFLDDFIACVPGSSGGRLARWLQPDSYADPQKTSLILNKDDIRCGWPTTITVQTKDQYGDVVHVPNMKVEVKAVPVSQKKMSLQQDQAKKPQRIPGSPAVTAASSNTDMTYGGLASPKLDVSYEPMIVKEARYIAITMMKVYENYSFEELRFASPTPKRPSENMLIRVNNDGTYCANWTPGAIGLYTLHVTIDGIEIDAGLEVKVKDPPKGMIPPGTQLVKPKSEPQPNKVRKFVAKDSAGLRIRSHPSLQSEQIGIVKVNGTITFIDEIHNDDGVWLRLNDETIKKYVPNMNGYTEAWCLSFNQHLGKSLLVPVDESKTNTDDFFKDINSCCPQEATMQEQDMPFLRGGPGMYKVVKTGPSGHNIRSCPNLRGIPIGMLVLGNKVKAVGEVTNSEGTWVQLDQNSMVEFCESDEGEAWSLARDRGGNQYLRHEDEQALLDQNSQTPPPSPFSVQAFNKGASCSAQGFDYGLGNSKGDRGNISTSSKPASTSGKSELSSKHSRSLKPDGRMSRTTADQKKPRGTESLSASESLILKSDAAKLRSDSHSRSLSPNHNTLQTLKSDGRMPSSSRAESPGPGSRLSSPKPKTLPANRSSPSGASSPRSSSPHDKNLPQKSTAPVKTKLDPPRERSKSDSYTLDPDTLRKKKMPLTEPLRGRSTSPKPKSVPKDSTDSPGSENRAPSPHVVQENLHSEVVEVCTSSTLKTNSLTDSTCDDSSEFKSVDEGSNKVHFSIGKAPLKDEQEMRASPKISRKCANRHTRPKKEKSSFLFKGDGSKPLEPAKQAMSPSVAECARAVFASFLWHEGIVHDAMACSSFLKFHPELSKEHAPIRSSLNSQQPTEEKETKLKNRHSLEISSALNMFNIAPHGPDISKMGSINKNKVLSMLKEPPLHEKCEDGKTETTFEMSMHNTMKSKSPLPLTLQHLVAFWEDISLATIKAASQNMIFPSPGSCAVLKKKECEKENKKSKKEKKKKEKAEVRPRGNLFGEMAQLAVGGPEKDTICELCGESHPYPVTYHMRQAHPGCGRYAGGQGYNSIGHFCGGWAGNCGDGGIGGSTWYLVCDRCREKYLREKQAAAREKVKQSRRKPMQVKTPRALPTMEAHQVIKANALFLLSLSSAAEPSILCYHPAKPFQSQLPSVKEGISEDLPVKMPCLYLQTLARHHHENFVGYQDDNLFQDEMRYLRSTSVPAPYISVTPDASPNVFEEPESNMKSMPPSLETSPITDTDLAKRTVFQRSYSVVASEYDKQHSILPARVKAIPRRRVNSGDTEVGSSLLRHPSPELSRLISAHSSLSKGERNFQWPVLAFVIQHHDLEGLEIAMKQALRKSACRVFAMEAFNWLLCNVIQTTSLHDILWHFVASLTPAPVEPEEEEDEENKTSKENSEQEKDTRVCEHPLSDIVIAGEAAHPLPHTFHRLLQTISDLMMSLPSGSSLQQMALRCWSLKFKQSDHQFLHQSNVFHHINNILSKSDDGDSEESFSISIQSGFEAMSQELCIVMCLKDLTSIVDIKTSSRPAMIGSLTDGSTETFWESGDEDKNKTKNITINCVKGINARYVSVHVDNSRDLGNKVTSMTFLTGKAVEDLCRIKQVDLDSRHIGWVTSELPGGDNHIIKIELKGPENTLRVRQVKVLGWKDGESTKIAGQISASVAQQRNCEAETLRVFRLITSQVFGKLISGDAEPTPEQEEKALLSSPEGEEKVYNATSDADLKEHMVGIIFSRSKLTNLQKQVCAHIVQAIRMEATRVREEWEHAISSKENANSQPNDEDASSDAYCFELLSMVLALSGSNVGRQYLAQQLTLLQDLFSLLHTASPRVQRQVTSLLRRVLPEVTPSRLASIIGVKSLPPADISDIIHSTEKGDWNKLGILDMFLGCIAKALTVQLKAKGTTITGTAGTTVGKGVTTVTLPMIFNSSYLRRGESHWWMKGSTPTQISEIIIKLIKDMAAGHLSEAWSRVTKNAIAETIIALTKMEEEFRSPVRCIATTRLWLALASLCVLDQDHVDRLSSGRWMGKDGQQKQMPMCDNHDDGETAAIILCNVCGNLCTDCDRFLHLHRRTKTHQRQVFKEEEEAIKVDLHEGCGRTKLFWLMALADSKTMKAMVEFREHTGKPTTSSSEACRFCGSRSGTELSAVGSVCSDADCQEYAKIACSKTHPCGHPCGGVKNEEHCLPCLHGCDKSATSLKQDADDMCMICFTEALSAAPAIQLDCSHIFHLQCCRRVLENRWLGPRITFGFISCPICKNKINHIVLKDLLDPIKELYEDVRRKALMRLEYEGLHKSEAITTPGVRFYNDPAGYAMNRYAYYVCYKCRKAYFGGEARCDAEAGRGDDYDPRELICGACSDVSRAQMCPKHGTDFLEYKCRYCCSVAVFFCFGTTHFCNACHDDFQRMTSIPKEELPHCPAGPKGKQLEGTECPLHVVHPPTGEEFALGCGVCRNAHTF
UniProt Q9R1A8: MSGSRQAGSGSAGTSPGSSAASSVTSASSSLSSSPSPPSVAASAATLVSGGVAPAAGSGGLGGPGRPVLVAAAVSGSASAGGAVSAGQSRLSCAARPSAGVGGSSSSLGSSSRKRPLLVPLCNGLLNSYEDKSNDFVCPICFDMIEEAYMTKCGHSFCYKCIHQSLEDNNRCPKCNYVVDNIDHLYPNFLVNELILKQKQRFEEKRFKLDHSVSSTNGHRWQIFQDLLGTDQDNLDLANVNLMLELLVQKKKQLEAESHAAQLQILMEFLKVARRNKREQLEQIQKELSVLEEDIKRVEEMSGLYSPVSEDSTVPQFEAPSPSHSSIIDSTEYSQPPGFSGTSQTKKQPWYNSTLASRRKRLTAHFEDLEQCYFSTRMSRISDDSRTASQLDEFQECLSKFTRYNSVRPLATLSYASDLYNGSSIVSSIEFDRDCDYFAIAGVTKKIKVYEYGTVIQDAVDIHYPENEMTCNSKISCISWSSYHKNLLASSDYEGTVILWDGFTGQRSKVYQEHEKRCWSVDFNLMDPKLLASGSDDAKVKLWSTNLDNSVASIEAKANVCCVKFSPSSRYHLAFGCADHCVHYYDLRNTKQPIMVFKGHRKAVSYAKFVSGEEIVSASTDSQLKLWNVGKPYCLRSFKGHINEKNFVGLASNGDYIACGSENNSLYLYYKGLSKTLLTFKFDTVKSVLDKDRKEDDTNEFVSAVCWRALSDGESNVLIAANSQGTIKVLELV

Changes are numbered by the printed parent chain. Where two headings read alike, the source gives them in different places. These are yes or no findings as the source states them, for the method shown. Binding seen in cells or lysates may run through a third protein. Some results given as binding are weak or reduced against the parent protein; the word gives no strength. For some of these results: Tags and fused reporters may be left off the sequences shown.

Test [1] concerns the target T1, endogenous UCP1 of mouse brown adipose tissue (mouse (endogenous in BAT)) (UniProt P12242).
T1 sequence: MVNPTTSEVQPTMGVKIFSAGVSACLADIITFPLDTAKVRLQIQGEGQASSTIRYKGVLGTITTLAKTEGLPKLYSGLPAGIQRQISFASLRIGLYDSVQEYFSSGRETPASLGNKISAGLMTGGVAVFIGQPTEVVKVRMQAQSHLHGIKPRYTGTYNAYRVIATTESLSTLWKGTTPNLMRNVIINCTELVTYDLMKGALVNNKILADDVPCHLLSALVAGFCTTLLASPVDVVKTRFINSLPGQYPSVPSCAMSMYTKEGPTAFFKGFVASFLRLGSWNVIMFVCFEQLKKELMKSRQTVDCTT
In words: co-IP.

The target of test [2] is T2, UCP1-GFP (human uncoupling protein 1 with GFP) (human) (UniProt P25874).
T2 sequence: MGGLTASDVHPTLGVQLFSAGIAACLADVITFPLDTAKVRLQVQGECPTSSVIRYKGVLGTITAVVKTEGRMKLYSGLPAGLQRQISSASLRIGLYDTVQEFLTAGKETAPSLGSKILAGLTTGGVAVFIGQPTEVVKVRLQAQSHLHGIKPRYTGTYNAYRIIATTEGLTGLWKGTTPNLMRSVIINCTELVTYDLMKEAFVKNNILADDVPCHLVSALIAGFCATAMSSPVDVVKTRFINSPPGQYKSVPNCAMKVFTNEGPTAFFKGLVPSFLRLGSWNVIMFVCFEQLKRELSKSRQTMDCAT
Kind of test: co-IP.

In test [3] the target is T2, UCP1-GFP (human uncoupling protein 1 with GFP) (human). Kind of test: co-IP. This is another data set of the same source.
Test [4] deals with T1, endogenous UCP1 of mouse brown adipose tissue (mouse (endogenous in BAT)). In words: proximity ligation.
Test [5] shares this target. In words: co-IP. The source holds these as a separate data set.
Test [6] concerns the target T3, TRIB2-GST (full-length mouse TRIB2 with GST) (mouse) (UniProt Q8K4K3).
T3 sequence: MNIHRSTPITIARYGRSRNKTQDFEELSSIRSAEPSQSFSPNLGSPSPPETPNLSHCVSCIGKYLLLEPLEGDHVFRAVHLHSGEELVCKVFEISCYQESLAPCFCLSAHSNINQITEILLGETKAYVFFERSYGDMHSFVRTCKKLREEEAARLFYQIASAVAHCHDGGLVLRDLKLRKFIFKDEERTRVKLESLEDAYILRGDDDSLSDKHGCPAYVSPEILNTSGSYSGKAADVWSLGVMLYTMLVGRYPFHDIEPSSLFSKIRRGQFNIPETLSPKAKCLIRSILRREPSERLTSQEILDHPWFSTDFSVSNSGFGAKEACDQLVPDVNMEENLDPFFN
In words: pull-down.

Take Smurf1 (from UniProt Q9CUN6 1-731): the binding result in test [1] is “no binding”.

As for MYCBP2-Myc (from UniProt O75592 1-4678), the binding entry in test [2] is listed as “binds”.

In the case of COP1 (from UniProt Q9R1A8 1-733), in test [1], the binding entry is recorded as “no binding”.

B1: TRIB2-His (full-length human TRIB2) (protein, UniProt Q92519 1-343)
chain: T3 sequence with E93D, L120I, G318A, F319Y, A324V, C325S
In the case of B1, the binding entry in test [3] was “binds”.

B2: endogenous TRIB2 of mouse brown adipose tissue (protein, UniProt Q8K4K3 1-343)
chain: T3 sequence
As to B2, the binding result in test [4] and in test [5] was “binds” throughout.

B3: endogenous UCP1 of mouse brown adipose tissue (protein, UniProt P12242 1-307)
chain: T1 sequence
In the case of B3, in test [6], the binding entry is “binds”.
